According to US20080181875A1, “USE OF CYCLOPHILIN AS ANTIOXIDANT AND PREVENTION OF CYCLOSPORIN A-INDUCED TOXICITY IN CELL TRANSPLANTATION BY OVEREXPRESSION OF CYCLOPHILIN” (priority 2002, published 2008):

Test system: CypA
Test: CypA expression level in gene-transfected cells by Western blot
Assay type: cell-based, rat
Conditions: transfected H9c2 cells, c-myc and CypA antibodies

CypA/W121F: mutated rat CypA with phenylalanine instead of tryptophan at position 121, transfected into H9c2 myoblasts
CypA expression level relative to base expression from chromosomal DNA: twice as much
